The text below walks through data of patent publication US20190284243A1, “BINDING PEPTIDES” (University of Copenhagen, priority 2016, published 2019).

These are yes or no findings as the source states them, for the method shown. For some assays here: Binding calls can cover weak binding; strength is not graded here.

Assay [1] has as its target Interleukin 1. Description: sandwich assay on PEGA beads, 50 nM IL1, 20 min.
For assay [2], the target named is Interleukin 1. Description: sandwich assay on PEGA beads, 50 nM IL1, 100 nM peptide B, ROX fluorescence.
Assay [3] has as its target Interleukin 1. Put plainly: Table 1 grade; context bead.
Assay [4] deals with Interleukin 1. Put plainly: fluorescence microscopy of two bead types incubated with IL1.
The target in assay [5] is Interleukin 1. Put plainly: fluorescence microscopy of two bead types incubated with 100 nM ROX-IL1.
Assay [6] deals with Interleukin 1. Put plainly: fluorescence microscopy of two bead types incubated with ROX-IL1.

Consider TKTDRVTEPGRTMTFTGT (designed binder, N-terminal RhodamineX) [Ligand 2: RhodamineX-…-OH (SEQ ID NO: 7)], for which the binding entry with Interleukin 1 [1] and in the assay with Interleukin 1 [2] was “binds” throughout.

Consider ETDTYTETYPGYTSTWTITD (designed binder) [Ligand 1: …-Bead (SEQ ID NO: 5)], for which the binding entry with Interleukin 1 [3], with Interleukin 1 [1], with Interleukin 1 [4], in the assay with Interleukin 1 [5] and in the assay with Interleukin 1 [2] was “binds” in each case.

TETKTVTITRPKMTWTFTHTVTG (designed binder) [β-body SEQ ID NO: 1 (…)]: the binding entry with Interleukin 1 [6] is listed as “no binding (tested: 100 nM)”.
